These are yes or no findings as the source states them, for the method shown. Some entries that bind do so weakly or less than the wild type. Where a sequence is shown, tags or fusion partners need not be part of it.
T1: GST–Ape1^1–45 (budding yeast) (UniProt P14904)
T1 sequence: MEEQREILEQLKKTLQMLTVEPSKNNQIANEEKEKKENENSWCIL

T2: Vac8 on purified vacuoles (budding yeast (endogenous in yeast vacuoles)) (UniProt P39968)
T2 sequence: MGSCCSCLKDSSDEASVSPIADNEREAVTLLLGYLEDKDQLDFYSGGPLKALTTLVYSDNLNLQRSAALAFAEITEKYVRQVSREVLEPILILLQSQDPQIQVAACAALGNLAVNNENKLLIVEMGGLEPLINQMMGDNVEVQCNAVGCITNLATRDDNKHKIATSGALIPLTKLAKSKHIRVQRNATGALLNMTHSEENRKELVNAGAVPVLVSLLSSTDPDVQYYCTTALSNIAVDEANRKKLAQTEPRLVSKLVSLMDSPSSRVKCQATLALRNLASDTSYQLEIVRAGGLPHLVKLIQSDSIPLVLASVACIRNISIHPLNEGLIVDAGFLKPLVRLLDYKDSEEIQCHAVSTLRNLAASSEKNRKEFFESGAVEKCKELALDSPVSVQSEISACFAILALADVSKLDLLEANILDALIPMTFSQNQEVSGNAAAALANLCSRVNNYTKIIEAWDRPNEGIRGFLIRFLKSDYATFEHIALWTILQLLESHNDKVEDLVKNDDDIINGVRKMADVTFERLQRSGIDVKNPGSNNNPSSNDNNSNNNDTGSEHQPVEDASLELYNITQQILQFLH


Tests used:
[1] = biological target: T1, GST–Ape1^1–45 (budding yeast); assay: pull-down; GST fusions on GSH beads incubated with purified recombinant Atg19^3D, 20 min at room temperature; six washes with GST-wash buffer containing 0.02% Tween-20; immunoblotting; both purified
[2] = biological target: T2, Vac8 on purified vacuoles (budding yeast (endogenous in yeast vacuoles)); assay: binding of condensates to purified vacuoles, fluorescence microscopy; purified vacuoles of wild-type or vac8∆ cells (Vph1–4xmCherry atg15∆ pep4∆) incubated with recombinant GFP–Atg11 droplets; condensates bound to vacuoles counted; only the binder purified

Row | binding [1] | binding [2] | Binder
1 | binds weakly |  | Atg19^3D (natural protein, budding yeast, UniProt P35193 1-415, looked up, Atg19, budding yeast, phospho-mimetic mutant S390D, S391D, S396D; also called purified recombinant Atg19^3D; source: E. coli BL21(DE3), expressed as GST–Atg19^3D from pGEX-4T.1, purified (GSH beads, thrombin elution, Superdex200); not shown: GST, N-terminal, cleaved) MNNSKTNQQMNTSMGYPLTVYDECNKFQLIVPTLDANIMLWCIGQLSLLNDSNGCKHLFWQPNDKSNVRILLNNYDYGHLFKYLQCQRKCSVYIGEGTLKKYNLTISTSFDNFLDLTPSEEKESLCREDAHEDPVSPKAGSEEEISPNSTSNVVVSRECLDNFMKQLLKLEESLNKLELEQKVTNKEPNHRISGTIDIPEDRSELVNFFTELKTVKQLEDVFQRYHDYERLSQECDSKTEIASDHSKKETKIEVEPPNERSLQITMNQRDNSLYFQLFNNTNSVLAGNCKLKFTDAGDKPTTQIIDMGPHEIGIKEYKEYRYFPYALDLEAGSTIEIENQYGEVIFLGKYGSSPMINLRPPSRLSAESLQASQEPFYSFQIDTLPELDDDDIISTDISLSYDGDDNEKALTWEEL
2 |  | binds | StrepII–GFP–Atg11 (protein, UniProt Q12527 1-1178) MADADEYSTAPTQQEITPLQTTATIINAISGECITTNVDFFVSLDKFKQFIARKWKIPPDQLLILLPYGNKLKPSMFKELLINRSFTLNDFYVYDRRLFSLVSKPTPTNLLTSKDSNPMNSPNSNDLTETLEYLIKNSHISQYQGSDTIMIKPMPSPLEDADVDLSRLNYHSVTSLLTTNLGWLSALEIDVHYFKSLIPDIIAHIKRIFDGLTVCSQYLKLYCFDVESLYNSNVQFLNQLVDNGMTSKWEKCFNDTLSKLTALEGDSLQKFINIESLLENEKSVKILNHSINGKLNKIKREIDENASFRDIITVNIDRLRQMFTPNESKFELEDQMAESFEVLVSEMRTRSRNVLDKEEEEFNSQEFLKSMNVMLEKDKKESVKTLFTISQALYSQIGELIDLKKSLQKHAVAILGNIAFTQMEILGIKRLLLNECNKDLELYKKYEVEFAQVEDLPLIYGLYLIEKYRRLSWFQQILSFISNFNQDLELFKQNELRTRNKWVKNFGSIATVFCEDLLSSSDFKRLNEYHSHTSPPNEDEEDENENSIANYRQDLVKVSQAIDNYMTQIKETDVSEPIIDLLSKTLFETKRFHIIYSNFKNNNNNSSNGNSISPEGSIALKSDDVVKGYKTRIKKLESLLHEFQYSDIGHWPQGVLNTHLKPFRGSATSINKKKFLGASVLLEPANISEVNIDSVSQANNHQIQELESNVDDLLHQLQLLKEENNRKSMQISEMGKKISDLEVEKTAYRETLTNLNQELARLTNEEQSHRTEIFTLNASFKKQLNDIISQDNEKIEKLTGDYDDVSKSRERLQMDLDESNKKHEQEVNLLKADIERLGKQIVTSEKSYAETNSSSMEKGEKFETIPLAEDPGRENQISAYTQTLQDRIFDIISTNIFILENIGLLLTFDNNNNIQIRRVKGLKKGTAQSNILDESTQMLDAHDNSLIKSPVFQKLKDEYELIKSVANGSEKDTQQSIFLGNITQLYDNKLYEVAVIRRFKDIETLAKKLTKENKIKRTLLERFQREKVTLRNFQIGDLALFLPTRENVNSVGSMSSSTSSLSSSFSSVDLSTPPPLDAMSIQSSPSVIHSNVINQASISGRDKNKLMRPWAAFTAFEESTRYFLKDEKGLTKGKEWFVGRIVTLEHFVADSPSNNPFRLPKGSVWFQVTAVVVSYQGV

Source: article PMC11821514 (Nature Cell Biology, 2025)
